This is an account of results in PMC11263086.

The exact form of at least one protein or probe is not confirmed.

For this data set, the target named is glycated albumin (GA) (UniProt P02768). Description: electrochemical aptasensor (DPV, CV). Conditions: aptamer on PDA NPs, 0.05-5 uM, GA 0.5-1000 ug/mL, LOD 0.17 ug/mL at 0.5 uM aptamer; 5'-NH2; PBS pH 7.4, 60 min GA incubation; DPV in 5 mM ferricyanide, 0.1 M KCl in PBS; incubation temperature not stated; commercial protein; single-stranded ….

Regarding “TGCGGTTGTAGTACTCGTGGCCG [anti-GA aptamer (23 nt)]”, the binding result is “binds”.
